Experimental data as given in the supplement of paper PMC11006884.
The entries are a selection whose mix differs from that of the whole data set.

By UniProt entry, the sequences of proteins in these tests, tags left out. Where a name states a change or a piece, a line headed by the entry shows the natural chain unless it says otherwise.
UniProt P27816: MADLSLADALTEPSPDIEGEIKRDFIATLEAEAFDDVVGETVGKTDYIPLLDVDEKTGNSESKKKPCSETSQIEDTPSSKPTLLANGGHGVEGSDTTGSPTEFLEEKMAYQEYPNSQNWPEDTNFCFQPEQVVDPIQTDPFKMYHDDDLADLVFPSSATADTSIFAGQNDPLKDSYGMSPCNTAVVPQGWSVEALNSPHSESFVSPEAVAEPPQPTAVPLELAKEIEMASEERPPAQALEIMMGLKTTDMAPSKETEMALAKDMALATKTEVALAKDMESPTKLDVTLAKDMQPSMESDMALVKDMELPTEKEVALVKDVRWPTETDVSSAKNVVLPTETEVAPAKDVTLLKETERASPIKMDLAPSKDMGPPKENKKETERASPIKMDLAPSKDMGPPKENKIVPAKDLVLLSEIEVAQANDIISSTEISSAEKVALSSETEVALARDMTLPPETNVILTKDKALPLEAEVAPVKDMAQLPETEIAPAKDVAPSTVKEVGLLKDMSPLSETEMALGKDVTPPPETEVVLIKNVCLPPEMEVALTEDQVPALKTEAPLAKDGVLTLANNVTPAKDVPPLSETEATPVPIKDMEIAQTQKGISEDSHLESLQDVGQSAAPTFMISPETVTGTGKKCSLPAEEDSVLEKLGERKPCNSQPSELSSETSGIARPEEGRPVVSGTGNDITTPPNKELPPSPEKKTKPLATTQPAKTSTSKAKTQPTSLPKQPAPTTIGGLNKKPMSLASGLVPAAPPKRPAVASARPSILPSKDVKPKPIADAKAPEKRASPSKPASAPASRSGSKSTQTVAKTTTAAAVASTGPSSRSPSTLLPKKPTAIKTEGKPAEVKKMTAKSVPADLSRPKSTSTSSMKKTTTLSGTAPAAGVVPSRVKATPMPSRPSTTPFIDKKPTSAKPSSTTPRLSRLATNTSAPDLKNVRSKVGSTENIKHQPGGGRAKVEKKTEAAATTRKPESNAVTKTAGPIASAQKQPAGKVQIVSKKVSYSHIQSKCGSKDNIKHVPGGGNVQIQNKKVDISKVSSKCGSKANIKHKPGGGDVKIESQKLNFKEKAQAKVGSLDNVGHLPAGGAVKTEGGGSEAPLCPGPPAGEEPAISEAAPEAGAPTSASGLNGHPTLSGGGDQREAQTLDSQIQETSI
UniProt P23368: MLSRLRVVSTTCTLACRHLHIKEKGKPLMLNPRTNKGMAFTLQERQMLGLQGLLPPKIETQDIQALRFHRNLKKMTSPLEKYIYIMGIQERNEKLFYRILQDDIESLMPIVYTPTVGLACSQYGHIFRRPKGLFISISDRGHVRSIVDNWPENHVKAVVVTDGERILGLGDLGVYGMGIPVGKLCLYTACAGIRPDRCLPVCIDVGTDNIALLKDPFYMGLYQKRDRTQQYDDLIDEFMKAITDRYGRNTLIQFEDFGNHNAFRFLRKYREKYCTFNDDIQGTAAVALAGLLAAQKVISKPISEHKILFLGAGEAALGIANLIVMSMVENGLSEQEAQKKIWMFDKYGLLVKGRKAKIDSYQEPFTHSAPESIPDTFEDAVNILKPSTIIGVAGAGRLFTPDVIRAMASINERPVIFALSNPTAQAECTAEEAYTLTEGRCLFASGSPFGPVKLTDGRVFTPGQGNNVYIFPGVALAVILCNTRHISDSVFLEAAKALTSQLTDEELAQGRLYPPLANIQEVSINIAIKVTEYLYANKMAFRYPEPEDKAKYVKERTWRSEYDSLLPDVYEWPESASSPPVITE
UniProt P27707: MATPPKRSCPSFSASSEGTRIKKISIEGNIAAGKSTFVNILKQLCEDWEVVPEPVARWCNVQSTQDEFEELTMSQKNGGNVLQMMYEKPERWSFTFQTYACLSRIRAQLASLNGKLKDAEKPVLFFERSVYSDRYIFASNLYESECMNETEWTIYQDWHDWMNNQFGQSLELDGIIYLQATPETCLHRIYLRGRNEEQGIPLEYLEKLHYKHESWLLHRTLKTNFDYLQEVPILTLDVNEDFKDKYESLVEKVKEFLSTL
UniProt P27348: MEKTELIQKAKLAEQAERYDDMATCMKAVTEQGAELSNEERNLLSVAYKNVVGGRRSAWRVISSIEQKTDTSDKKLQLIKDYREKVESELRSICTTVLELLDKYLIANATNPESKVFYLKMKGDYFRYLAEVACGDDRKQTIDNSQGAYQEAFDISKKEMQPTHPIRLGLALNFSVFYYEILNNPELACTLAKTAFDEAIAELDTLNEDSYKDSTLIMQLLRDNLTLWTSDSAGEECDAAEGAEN
UniProt P21291: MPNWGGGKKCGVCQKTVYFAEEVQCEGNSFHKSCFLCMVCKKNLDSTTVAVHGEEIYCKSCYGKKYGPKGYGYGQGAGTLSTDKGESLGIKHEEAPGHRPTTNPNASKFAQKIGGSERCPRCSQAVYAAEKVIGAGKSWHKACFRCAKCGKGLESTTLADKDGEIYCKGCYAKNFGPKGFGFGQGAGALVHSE
UniProt P28288: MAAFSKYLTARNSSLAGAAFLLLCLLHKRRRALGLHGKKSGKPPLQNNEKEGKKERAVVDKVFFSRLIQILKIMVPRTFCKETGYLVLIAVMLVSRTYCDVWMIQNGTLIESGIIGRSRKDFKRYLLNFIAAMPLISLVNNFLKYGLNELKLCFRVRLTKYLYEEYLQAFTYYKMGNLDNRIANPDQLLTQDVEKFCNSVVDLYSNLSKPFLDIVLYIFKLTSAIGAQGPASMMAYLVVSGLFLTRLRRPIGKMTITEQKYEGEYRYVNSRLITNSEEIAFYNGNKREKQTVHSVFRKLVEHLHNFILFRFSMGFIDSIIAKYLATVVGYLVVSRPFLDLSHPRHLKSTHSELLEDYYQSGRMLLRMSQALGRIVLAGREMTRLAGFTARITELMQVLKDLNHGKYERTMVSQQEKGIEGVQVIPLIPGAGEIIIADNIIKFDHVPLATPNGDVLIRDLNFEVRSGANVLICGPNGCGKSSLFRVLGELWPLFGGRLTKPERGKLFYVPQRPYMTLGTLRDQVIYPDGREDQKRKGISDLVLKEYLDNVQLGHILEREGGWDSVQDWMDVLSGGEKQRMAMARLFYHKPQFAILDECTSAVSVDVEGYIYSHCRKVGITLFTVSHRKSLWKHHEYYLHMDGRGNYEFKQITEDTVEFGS
UniProt P28290: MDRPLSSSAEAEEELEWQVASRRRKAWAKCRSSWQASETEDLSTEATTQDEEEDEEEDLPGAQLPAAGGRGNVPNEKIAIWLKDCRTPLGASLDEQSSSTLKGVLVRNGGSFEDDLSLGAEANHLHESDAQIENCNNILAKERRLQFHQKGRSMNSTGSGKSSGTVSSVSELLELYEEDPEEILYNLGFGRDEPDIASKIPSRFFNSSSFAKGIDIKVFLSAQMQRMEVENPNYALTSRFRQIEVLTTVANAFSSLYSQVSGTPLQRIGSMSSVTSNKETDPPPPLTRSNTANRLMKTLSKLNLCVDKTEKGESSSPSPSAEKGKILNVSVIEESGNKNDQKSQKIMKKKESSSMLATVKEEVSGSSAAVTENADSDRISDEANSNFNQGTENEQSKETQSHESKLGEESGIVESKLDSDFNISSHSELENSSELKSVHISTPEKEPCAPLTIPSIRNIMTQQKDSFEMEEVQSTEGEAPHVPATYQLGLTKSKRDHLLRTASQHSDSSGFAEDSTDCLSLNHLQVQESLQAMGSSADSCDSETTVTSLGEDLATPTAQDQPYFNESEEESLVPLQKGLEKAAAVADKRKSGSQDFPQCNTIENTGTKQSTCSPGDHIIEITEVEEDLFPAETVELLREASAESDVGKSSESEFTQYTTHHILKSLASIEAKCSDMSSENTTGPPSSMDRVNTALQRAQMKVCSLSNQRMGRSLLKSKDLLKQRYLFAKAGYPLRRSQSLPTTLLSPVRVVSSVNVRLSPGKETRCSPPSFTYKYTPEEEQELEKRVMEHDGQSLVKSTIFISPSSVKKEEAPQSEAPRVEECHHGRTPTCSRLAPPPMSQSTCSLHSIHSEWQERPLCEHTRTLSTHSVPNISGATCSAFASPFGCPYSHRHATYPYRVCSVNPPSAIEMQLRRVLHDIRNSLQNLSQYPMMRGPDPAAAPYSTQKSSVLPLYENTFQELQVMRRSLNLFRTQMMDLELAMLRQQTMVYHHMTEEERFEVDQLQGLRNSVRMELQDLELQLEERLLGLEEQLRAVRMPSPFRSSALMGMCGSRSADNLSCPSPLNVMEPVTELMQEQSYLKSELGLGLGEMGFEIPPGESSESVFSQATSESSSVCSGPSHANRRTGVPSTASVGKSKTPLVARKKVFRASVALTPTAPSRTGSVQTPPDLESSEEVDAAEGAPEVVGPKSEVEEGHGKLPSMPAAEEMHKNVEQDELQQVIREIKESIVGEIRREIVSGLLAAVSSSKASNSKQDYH
UniProt P30084: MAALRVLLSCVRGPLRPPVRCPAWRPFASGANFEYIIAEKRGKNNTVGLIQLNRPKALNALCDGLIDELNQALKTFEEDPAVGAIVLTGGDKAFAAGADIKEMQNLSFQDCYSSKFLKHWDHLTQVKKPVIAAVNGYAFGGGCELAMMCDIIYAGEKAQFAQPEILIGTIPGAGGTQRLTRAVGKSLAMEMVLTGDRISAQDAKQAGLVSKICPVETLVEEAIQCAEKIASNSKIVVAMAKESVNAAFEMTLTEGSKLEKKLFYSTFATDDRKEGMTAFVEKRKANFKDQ
UniProt P26641, whole entry, looked up: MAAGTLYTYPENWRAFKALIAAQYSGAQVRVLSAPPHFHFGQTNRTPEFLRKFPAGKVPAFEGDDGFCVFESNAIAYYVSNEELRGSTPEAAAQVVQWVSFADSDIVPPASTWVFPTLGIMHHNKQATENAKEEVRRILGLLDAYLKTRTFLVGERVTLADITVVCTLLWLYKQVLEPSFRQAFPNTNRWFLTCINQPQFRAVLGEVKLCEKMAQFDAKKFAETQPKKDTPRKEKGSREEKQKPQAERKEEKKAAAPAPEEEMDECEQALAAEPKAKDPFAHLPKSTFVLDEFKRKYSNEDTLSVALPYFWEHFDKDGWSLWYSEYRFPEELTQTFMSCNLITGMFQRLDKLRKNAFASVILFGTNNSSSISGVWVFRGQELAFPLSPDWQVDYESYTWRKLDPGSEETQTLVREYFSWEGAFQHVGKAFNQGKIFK
UniProt P28066: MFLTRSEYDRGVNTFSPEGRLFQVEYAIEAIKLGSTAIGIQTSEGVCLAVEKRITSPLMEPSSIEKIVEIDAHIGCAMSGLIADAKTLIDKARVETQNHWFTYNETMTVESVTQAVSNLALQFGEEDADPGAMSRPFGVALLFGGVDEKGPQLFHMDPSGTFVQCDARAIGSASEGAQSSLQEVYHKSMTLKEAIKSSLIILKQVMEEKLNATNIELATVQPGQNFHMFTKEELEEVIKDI
UniProt P28482, whole entry, looked up: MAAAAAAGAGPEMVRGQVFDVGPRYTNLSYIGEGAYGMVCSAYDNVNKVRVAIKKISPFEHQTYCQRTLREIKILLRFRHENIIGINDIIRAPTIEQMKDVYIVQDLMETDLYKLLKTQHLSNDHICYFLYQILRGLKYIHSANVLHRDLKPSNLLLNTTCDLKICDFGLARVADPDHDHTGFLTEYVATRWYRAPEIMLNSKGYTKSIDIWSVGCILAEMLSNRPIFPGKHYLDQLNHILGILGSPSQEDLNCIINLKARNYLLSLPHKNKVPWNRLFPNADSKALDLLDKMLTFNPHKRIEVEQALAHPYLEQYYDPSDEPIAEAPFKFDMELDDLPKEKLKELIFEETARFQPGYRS
UniProt P23508: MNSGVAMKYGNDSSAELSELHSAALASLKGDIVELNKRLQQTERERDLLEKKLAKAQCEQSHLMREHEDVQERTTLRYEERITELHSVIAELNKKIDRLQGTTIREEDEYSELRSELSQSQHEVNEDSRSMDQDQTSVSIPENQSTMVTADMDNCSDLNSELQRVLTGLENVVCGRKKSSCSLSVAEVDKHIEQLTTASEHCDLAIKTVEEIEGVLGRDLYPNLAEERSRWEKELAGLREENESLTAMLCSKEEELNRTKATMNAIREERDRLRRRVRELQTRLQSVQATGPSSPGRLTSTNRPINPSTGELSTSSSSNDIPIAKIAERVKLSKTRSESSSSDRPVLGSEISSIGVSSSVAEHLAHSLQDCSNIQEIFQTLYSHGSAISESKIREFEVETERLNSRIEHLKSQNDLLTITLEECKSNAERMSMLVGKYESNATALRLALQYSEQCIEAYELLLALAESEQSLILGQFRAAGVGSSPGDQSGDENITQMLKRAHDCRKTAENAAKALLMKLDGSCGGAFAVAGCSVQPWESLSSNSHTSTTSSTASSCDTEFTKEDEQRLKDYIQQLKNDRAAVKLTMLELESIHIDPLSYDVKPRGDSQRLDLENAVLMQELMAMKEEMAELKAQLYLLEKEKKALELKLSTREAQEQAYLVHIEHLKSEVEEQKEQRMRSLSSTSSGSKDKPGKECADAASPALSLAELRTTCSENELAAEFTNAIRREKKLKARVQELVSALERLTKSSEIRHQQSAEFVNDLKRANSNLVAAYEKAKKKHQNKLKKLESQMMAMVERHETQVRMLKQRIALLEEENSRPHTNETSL

Compound: COC(=O)C#Cc1ccccc1 [methyl 3-phenylpropiolate]
Test: log2 ratio of iodoacetamide-alkyne labeling of the cysteine site, DMSO over compound (competition); higher = stronger covalent engagement of the cysteine by the compound, active = 1 or more
Settings: 500 µM; treatment time 1 h; system: HEK293T cell lysate
In short: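 The log2 competition ratio per cysteine is defined as mean reporter intensity in control channels over mean reporter intensity in compound channels. Lysate from HEK293T cells (2 mg/mL) received electrophile (500 µM) or vehicle for 1 h at ambient temperature, followed by iodoacetamide alkyne for 1 h. Samples were clicked to sCIP-TMT reagents, pooled, trypsin-digested overnight at 37 °C, streptavidin-enriched, acid-eluted and run on Orbitrap Eclipse LC-MS/MS with FAIMS, with quantification in FragPipe. Three replicates with duplicate channels were used, and any cysteine quantified in only one replicate was excluded.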

log2 ratio of iodoacetamide-alkyne labeling, inactive:
POLD1 C713 (UniProt P28340) -0.0841
TCP1 C357 (UniProt P17987) 0.957
ATP6V1B2 C162 (UniProt P21281) 0.0743
MAP4 C1008 (UniProt P27816) 0.623
ME2 C120 (UniProt P23368) -0.0679
DCK C45 (UniProt P27707) 0.103
IMPDH1 C215 (UniProt P20839) 0.0691
IMPA1 C24 (UniProt P29218) 0.368
YWHAQ C134 (UniProt P27348) -0.0407
POLD1 C1061 (UniProt P28340) 0.113
CFL1 C147 (UniProt P23528) 0.053
LMNB1 C317 (UniProt P20700) 0.175
TCP1 C218 (UniProt P17987) 0.0267
UniProt P26639_C107 0.12
CSRP1 C167 (UniProt P21291) 0.124
ABCD3 C477 (UniProt P28288) 0.697
APEX1 C310 (UniProt P27695) -0.035
HNRNPA2B1 C50 (UniProt P22626) -0.0591
UniProt P28290_C448 0.3
ABCD3 C24 (UniProt P28288) -0.00131
ATP6V1B2 C112 (UniProt P21281) 0.262
ERP29 C157 (UniProt P30040) -0.0314
RRM1 C352 (UniProt P23921) 0.357
TPP2 C967 (UniProt P29144) 0.00692
ECHS1 C111 (UniProt P30084) 0.461
ECHS1 C213 (UniProt P30084) -0.205
ACAT1 C142 (UniProt P24752) -0.0833
HK1 C813 (UniProt P19367) 0.174
DNMT1 C751 (UniProt P26358) 0.299
EEF1G C68 (UniProt P26641) 0.211
UniProt P28066_C76 -0.0535
UniProt P28482_C65 0.107
UniProt P25398_C130 0.337
GART C646 (UniProt P22102) 0.106
MCC C714 (UniProt P23508) 0.565
ARF4 C159 (UniProt P18085) 0.0639
MCM3 C319 (UniProt P25205) -0.032

Retrieved one by one from the list above (two):
log2 ratio of iodoacetamide-alkyne labeling, inactive:
MCM3 C319 (UniProt P25205) -0.032
ECHS1 C111 (UniProt P30084) 0.461
